## Library screening results

Sequences of proteins named here, by UniProt entry; tags and fusion partners are left off.
UniProt E9BF75, entry or part of it: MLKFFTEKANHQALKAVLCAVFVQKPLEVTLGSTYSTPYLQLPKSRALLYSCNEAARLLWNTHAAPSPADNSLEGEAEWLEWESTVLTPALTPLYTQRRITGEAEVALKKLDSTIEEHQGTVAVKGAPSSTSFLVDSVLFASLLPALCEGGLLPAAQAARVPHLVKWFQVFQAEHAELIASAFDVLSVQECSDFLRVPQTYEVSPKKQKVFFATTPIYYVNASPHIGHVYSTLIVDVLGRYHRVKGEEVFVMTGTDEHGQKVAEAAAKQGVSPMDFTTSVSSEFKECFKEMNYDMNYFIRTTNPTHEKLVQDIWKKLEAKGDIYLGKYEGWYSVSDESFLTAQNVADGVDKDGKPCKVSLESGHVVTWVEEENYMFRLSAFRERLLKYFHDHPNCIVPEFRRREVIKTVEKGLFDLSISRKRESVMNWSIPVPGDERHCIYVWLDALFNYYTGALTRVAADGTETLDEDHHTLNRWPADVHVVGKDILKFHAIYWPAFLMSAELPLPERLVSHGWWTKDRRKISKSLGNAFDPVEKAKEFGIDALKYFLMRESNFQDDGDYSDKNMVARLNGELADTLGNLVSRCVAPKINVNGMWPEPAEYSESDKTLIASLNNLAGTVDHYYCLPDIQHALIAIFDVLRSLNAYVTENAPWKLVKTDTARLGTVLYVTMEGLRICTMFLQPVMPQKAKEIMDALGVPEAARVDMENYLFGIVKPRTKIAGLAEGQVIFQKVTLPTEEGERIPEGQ

Mtb heat-shock: 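Assay on Mycobacterium tuberculosis, filed only as a heat shock assay from Cornell; the read-out is not stated. The concentration is filed as 10 mM, unlikely as a test dose, so the dose is not known. Direction is inferred from retests: higher values go with stronger inhibition. Size under these conditions: about 69,000 compounds, about 930 of them at 50% or above in at least one test.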
Mtb growth Cornell: 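Whole-cell assay for inhibitors of Mycobacterium tuberculosis growth, labelled Cornell in the record; the read-out is not stated. The concentration is filed as 10 mM, unlikely as a test dose, so the dose is not known. The record gives no direction; compounds strong in two other growth screens of this library score well above the rest, so higher reads as stronger inhibition. Size under these conditions: about 53,000 compounds, about 900 of them at 50% or above in at least one test.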
LdMetRS: 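Primary screen of methionyl-tRNA synthetase; the read-out is not stated. Target: Methionyl-tRNA synthetase (putative), Leishmania donovani (UniProt E9BF75). The test concentration is not given. The values are filed as inhibition. Of about 68,000 compounds tested this way, about 24 (0.035%) reached 50% or more in at least one test.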

All values are in %.
How 0% and 100% were set is not recorded. Most values in the screen are low, and negative values occur.
The compounds are a random part of those screened.

Result for [H][C@]12CC[C@]([H])(CN(Cc3[nH]cnc3C)C1)N(C(=O)CCc1cccnc1)C2 was Mtb heat-shock: 5.706%; Mtb growth Cornell: -20.6%.
Result for O=C(O)CCc1nc2nccc(-c3ccc(F)cc3)n2n1 was Mtb heat-shock: -26.67%; Mtb growth Cornell: -24.86%; LdMetRS: -6.216%.
Result for [H][C@]12C[C@@H](CN(C)C)N(C(C)=O)[C@@]1([H])CCN(C(=O)c1ccsc1)C2 was Mtb heat-shock: -17.4%; Mtb growth Cornell: -6.285%.
Result for CC1CCN(c2ccc(C(=O)N3CCCC3c3nncn3C)cn2)CC1 (centres undefined) was Mtb heat-shock: -19.04%; Mtb growth Cornell: -18.06%; LdMetRS: 4.749%.
Result for NC(=O)c1ccc(C2CN(Cc3ccc(F)cc3)CCO2)nc1 (centres undefined) was Mtb heat-shock: -9.358%; Mtb growth Cornell: -15.25%; LdMetRS: 4.255%.
Result for Cc1nc(O)cc(C2CCN(Cc3ccc(F)c(F)c3)C2)n1.O=C(O)CC(O)(CC(=O)O)C(=O)O (centres undefined) was Mtb heat-shock: -25.92%.
Result for CCCN1CC(C(=O)Nc2ccccn2)CC1=O (centres undefined) was Mtb heat-shock: 4.645%; LdMetRS: 14.86%.
Result for CCc1c(-c2ccccc2)nc2c(c(C)c(C)n2CCN(C)C)c1N was Mtb heat-shock: 29.39%; Mtb growth Cornell: 1.617%; LdMetRS: 9.84%.
Result for CCc1nc(C)cn1C(=O)Nc1ccc(F)cc1 was Mtb heat-shock: -3.382%; Mtb growth Cornell: 39.87%; LdMetRS: 10.54%.
Result for CCn1cc(Cl)c(C(=O)NCCCO)n1 was Mtb heat-shock: -5.379%; LdMetRS: 18.34%.
Result for CC(C)N(C)Cc1cn2c(n1)CN(C(=O)Cc1ccsc1)CC2 was LdMetRS: 9.5%.
Result for O=C(Cc1ccn[nH]1)N1CCc2cc(Br)sc2C1 was Mtb heat-shock: -7.409%; Mtb growth Cornell: 17.86%; LdMetRS: 4.693%.
Result for CN1CCO[C@@H]2CN(S(=O)(=O)c3ccc(F)cc3)CC[C@@H]2C1 was LdMetRS: 14.29%.
Result for Cl.Cl.[H][C@@]12CC[C@@H](COCc3csc(C)n3)O[C@]1([H])CCN2 was Mtb heat-shock: -12.03%; Mtb growth Cornell: -50.39%.
Result for Cn1cc(-c2cnc(N3CCCC3)nc2)cc1C(=O)N1CCOCC1 was Mtb heat-shock: -12.68%; Mtb growth Cornell: 23.39%; LdMetRS: 13.54%.
Result for CC(C)NC(=O)N1CCOC2(CNC2)C1 was Mtb heat-shock: -2.078%; LdMetRS: 9.444%.
Result for O=C(CCn1cnnn1)N1CCCC(CO)(CCCc2ccccc2)C1 (centres undefined) was Mtb heat-shock: -105.2%; LdMetRS: 8.157%.
Result for Cc1nc(C2CCNC2)nc2c1CCC(=O)N2CC(C)C.Cl (centres undefined) was Mtb heat-shock: -0.8245%; Mtb growth Cornell: 15.62%.
Result for Cc1cc(NC(=O)N2CCC[C@@H]2CO)nn1-c1cccc(Cl)c1 was Mtb heat-shock: 1.073%; Mtb growth Cornell: 8.306%; LdMetRS: 19.15%.
Result for CC(C#N)CSc1ccccc1NCC(=O)NC(=O)NC(C)(C)C (centres undefined) was Mtb heat-shock: -15.23%; Mtb growth Cornell: 3.731%; LdMetRS: 20.11%.
Result for O=C1CC(c2cccnc2)c2c(c(C(=O)O)cn2-c2ccccc2)N1 (centres undefined) was Mtb heat-shock: -8.173%; LdMetRS: 17.84%.
Result for CCc1ncc2c(n1)CN(c1cc(NCCO)nc(N)n1)C2 was Mtb heat-shock: 7.096%; LdMetRS: 14.29%.
Result for c1ccc(O[C@H]2COCCN(Cc3c[nH]c4ccccc34)C2)cc1 was Mtb heat-shock: 78.8%; LdMetRS: 7.692%.
Result for O=C(C1CC1)N1CCCCCC1C1CCN(c2ncccn2)CC1 (centres undefined) was Mtb heat-shock: 16.08%; Mtb growth Cornell: 34.84%; LdMetRS: 8.815%.
Result for CN(CCN1CCCC1=O)S(=O)(=O)CC1CCCC1 was Mtb heat-shock: 5.448%; Mtb growth Cornell: -4.343%; LdMetRS: 9.408%.
Result for CO[C@@H]1CC[C@H]2[C@H]1OCCN2C(=O)c1ccc(C)o1 was LdMetRS: -3.922%.
Result for O=C(CC1CCCC1)Nc1ccc(-n2cc(Br)cn2)nc1 was Mtb heat-shock: -8.673%; Mtb growth Cornell: -30.98%; LdMetRS: 3.333%.
Result for Cc1ccccc1N1CC(c2nnc(N)s2)CC1=O (centres undefined) was Mtb heat-shock: -5.308%; Mtb growth Cornell: 5.035%; LdMetRS: 8.215%.
Result for COc1ccc(Cc2ncc3c(n2)CN(C(=O)CCO)C3)cc1 was Mtb heat-shock: -15.41%; LdMetRS: -2.667%.
Result for Cc1ccccc1NC(=O)N1CCN(C(=O)C2CC2)[C@@H]2CS(=O)(=O)C[C@@H]21 was LdMetRS: 1.577%.
Result for Cc1nc(N2CCCC2)nc2c1CCN(Cc1ccsc1)CC2 was LdMetRS: -2.405%.
Result for O=C1[C@H]2CN(c3cnccn3)C[C@H]2CN1CC1CC1 was LdMetRS: 17.93%.
Result for CC(NC(=O)c1cc(-c2cccc(Cl)c2)no1)C(=O)N(C)C (centres undefined) was Mtb heat-shock: -6.074%; Mtb growth Cornell: 9.545%; LdMetRS: 18.16%.
Result for Cc1ccc(NCc2nc3n(n2)CCCCC3)c(C)c1 was Mtb heat-shock: -20.72%; Mtb growth Cornell: 13.45%; LdMetRS: 10.76%.

Once more, the final 4:

* Cc1nc(N2CCCC2)nc2c1CCN(Cc1ccsc1)CC2 | LdMetRS: -2.405%
* O=C1[C@H]2CN(c3cnccn3)C[C@H]2CN1CC1CC1 | LdMetRS: 17.93%
* CC(NC(=O)c1cc(-c2cccc(Cl)c2)no1)C(=O)N(C)C (centres undefined) | Mtb heat-shock: -6.074%; Mtb growth Cornell: 9.545%; LdMetRS: 18.16%
* Cc1ccc(NCc2nc3n(n2)CCCCC3)c(C)c1 | Mtb heat-shock: -20.72%; Mtb growth Cornell: 13.45%; LdMetRS: 10.76%

Source: ChEMBL document CHEMBL3988442, “University of Dundee, Small-Polar-MMV Screening Library” (2021).